{
  "source": "paper PMC12040169",
  "about": "(PLOS Biology, 2025)",
  "note": "Some of the results follow.",
  "data": [
    {"system": "T1, CTL2-GFP (C. trachomatis L2/434/Bu, GFP-expressing)", "T1 construct": "L2/434/Bu, GFP-expressing", "parameters": "species or system HeLa; Intracellular C. trachomatis growth in HeLa cells, bulk GFP fluorescence relative to DMSO", "details": "bulk GFP, single well; 28.5 h, 10 µM; inhibitor", "units": {"% of control remaining": "%"}, "values": [
      {"smiles": "NS(=O)(=O)c1ccc(CCNCc2ccc3c(c2)OCO3)cc1", "note": "[CBK269819C]", "% of control remaining": 101.179},
      {"smiles": "O=C(NCCc1c[nH]c2ccccc12)c1cccs1", "note": "[CBK231038]", "% of control remaining": 107.66},
      {"smiles": "Cc1ccccc1Nc1nc(-c2ccc([N+](=O)[O-])cc2)nc2ccccc12", "note": "[CBK264803]", "% of control remaining": 109.484},
      {"smiles": "Cc1csc(C(Cc2ccsc2)NC(=O)Cn2cccn2)n1", "note": "(stereo not drawn) [CBK282831]", "% of control remaining": 118.686},
      {"smiles": "CC(C)NC(=O)C1CCN(c2nc3ccccc3n2C)CC1", "note": "[CBK283986]", "% of control remaining": 110.697},
      {"smiles": "O=C(OCC#CCSc1nnc(-c2ccccc2)o1)c1ccc([N+](=O)[O-])cc1", "note": "[CBK265588]", "% of control remaining": 100},
      {"smiles": "CCN(Cc1ccncc1)C(=O)NCCCN1CCN(C)CC1", "note": "[CBK155123]", "% of control remaining": 114.741},
      {"smiles": "Fc1ccc(-c2cn(-c3ccc4c(c3)CCO4)nn2)cc1", "note": "[CBK113132]", "% of control remaining": 84.8245},
      {"smiles": "CC1(C)CC(=O)C=C(C(=O)NCc2c(F)cccc2F)O1", "note": "[CBK153287]", "% of control remaining": 100},
      {"smiles": "N#Cc1ccc(CN2C[C@@H]3OCC(=O)N[C@@H]3C2)cc1", "note": "[CBK289261]", "% of control remaining": 135.76},
      {"smiles": "Cc1nn(CCC(=O)NC(c2ccccc2)c2cccnc2)c(C)c1C", "note": "(stereo not drawn) [CBK282547]", "% of control remaining": 111.624},
      {"smiles": "COc1ccccc1NC(=O)COc1ccc(C)cc1[N+](=O)[O-]", "note": "[CBK269724]", "% of control remaining": 131.048},
      {"smiles": "O=C(Cc1ccc(F)cc1)Nc1nc(-c2cccs2)cs1", "note": "[CBK287736]", "% of control remaining": 83.4387},
      {"smiles": "COc1cc(NS(=O)(=O)c2ccc(Nc3nc(-c4sc(N)nc4C)cs3)cc2)nc(OC)n1", "note": "[CBK262796]", "% of control remaining": 31.0041},
      {"smiles": "COc1cccc(CN[C@@H]2CCC[C@H]2Cc2cc(C)no2)c1", "note": "[CBK283006]", "% of control remaining": 94.2705},
      {"smiles": "CCOc1ccc2nc(NS(=O)(=O)c3cccc(C(=O)O)c3)sc2c1", "note": "[CBK161137]", "% of control remaining": 119.113},
      {"smiles": "Cc1cc(C)c2c(c1)cc(C)c1nn(CC(=O)NC3CC3)c(=O)n12", "note": "[CBK283877]", "% of control remaining": 107.463},
      {"smiles": "CCCNC(=O)Cn1cnc2sc(C(=O)Nc3ccccc3OC)c(C)c2c1=O", "note": "[CBK071910]", "% of control remaining": 129.843},
      {"smiles": "CC1(C)Cc2cccc(OCC(=O)O)c2O1", "note": "[CBK270161]", "% of control remaining": 132.879},
      {"smiles": "Nc1nnc(SC/C=C/CSc2nnc(N)s2)s1", "note": "[CBK263092]", "% of control remaining": 118.463},
      {"smiles": "Cc1ccc(C(=O)NCc2ccc3c(c2)CCO3)c(N2CCOCC2)n1", "note": "[CBK106202]", "% of control remaining": 104.406},
      {"smiles": "CC(C)c1cc(C(=O)N2CCN(C)C(=O)C2Cc2ccccc2-c2ccc(F)cc2)[nH]n1", "note": "(stereo not drawn) [CBK285833]", "% of control remaining": 131.882},
      {"smiles": "C/C(=C(/C(=O)N(N)c1nc2ccccc2s1)C(=O)C(F)(F)F)N1CCC(C(N)=O)CC1", "note": "[CBK265758]", "% of control remaining": 100},
      {"smiles": "Cc1cc(C)n(CCCC(=O)N2C[C@H]3CCc4c[nH]nc4[C@H]3C2)n1", "note": "[CBK284573]", "% of control remaining": 71.7334},
      {"smiles": "O=S(=O)(NCCCn1ccnc1)c1cc(Cl)ccc1Cl", "note": "[CBK261767]", "% of control remaining": 100},
      {"smiles": "Cc1nnc2sc(-c3ccc(CNC(=S)NC(=O)c4ccccc4[N+](=O)[O-])cc3)nn12", "note": "[CBK268588]", "% of control remaining": 153.598},
      {"smiles": "CCC(CC)C(=O)N1CCC(c2nnc3n2CCCCC3)CC1", "note": "[CBK284614]", "% of control remaining": 160.136},
      {"smiles": "O=C(NC(=S)Nc1ccc(-c2ccc(CO)o2)cc1)c1ccc2c(c1)OCCO2", "note": "[CBK269038]", "% of control remaining": 140.442},
      {"smiles": "COc1ccc(-c2nn(-c3ccccc3)cc2/C=C2\\SC(N3CC(C)OC(C)C3)=NC2=O)cc1F", "note": "(stereo not drawn) [CBK265613]", "% of control remaining": 112.331},
      {"smiles": "CS(=O)(=O)c1ncc(Cl)c(C(=O)N(Cc2ccccc2)c2ccccn2)n1", "note": "[CBK269489]", "% of control remaining": 52.4801},
      {"smiles": "CCc1ccc(OC)c(S(=O)(=O)N2CCOCC2)c1", "note": "[CBK268214]", "% of control remaining": 84.2438},
      {"smiles": "COc1ccc2c(c1)c1nc(C)sc1n2CCN1CCCCC1", "note": "[CBK269909C]", "% of control remaining": 116.942},
      {"smiles": "Cn1cc(C2CCCN2C(=O)Cc2csc3ccccc23)cn1", "note": "(stereo not drawn) [CBK305066]", "% of control remaining": 129.102},
      {"smiles": "O=C(CN1C(=O)N2CCCN=C2c2ccc(Cl)cc21)N1CCCC1", "note": "[CBK284387]", "% of control remaining": 118.32},
      {"smiles": "Cn1ccnc1SCC(=O)Nc1ccc(S(N)(=O)=O)cc1", "note": "[CBK263190]", "% of control remaining": 113.342},
      {"smiles": "CC(=O)C(Sc1ccc2nnc(-c3ccc(C)cc3)n2n1)C(C)=O", "note": "[CBK287525]", "% of control remaining": 115.909},
      {"smiles": "Cc1noc(C)c1NC(=O)c1ccccn1", "note": "[CBK200299]", "% of control remaining": 87.7461},
      {"smiles": "Fc1ccccc1CN(CCCn1ccnc1)CC1CCOC1", "note": "(stereo not drawn) [CBK283031]", "% of control remaining": 110.349},
      {"smiles": "O=C(N[C@@H](Cn1cc(Cl)c(=O)[nH]c1=O)C(=O)O)C1CC1", "note": "[CBK289649]", "% of control remaining": 102.374},
      {"smiles": "CCCC(=O)NCC1Cc2cc(F)cc(-c3ccc(C(C)=O)s3)c2O1", "note": "(stereo not drawn) [CBK306945]", "% of control remaining": 103.884},
      {"smiles": "CNC(=O)C1(Cc2ccccc2-c2cccc(F)c2)CCN(C(=O)Cc2ccccc2)CC1", "note": "[CBK285692]", "% of control remaining": 98.876},
      {"smiles": "Cc1ccc(NC(=O)/C=C/C(=O)O)c(NC(=O)c2ccccc2)c1", "note": "[CBK286563]", "% of control remaining": 107.936},
      {"smiles": "CS(=O)(=O)c1ccc(-c2ccc(N)c3ccccc23)cc1", "note": "[CBK084326]", "% of control remaining": 110.864},
      {"smiles": "CN(C(=O)Cn1cccc(C(=O)NCC(C)(C)c2ccc(F)cc2)c1=O)C1CCCCC1", "note": "[CBK286112]", "% of control remaining": 88.0601},
      {"smiles": "O=C(Nc1ccc(-c2ccc(NC(=O)c3ccncc3)cc2)cc1)c1ccncc1", "note": "[CBK262321]", "% of control remaining": 95.7097},
      {"smiles": "CC(C)Nc1cc(SCCN(C)C)ncn1", "note": "[CBK105616]", "% of control remaining": 89.1382},
      {"smiles": "Nc1nc(O)c2c(n1)NC1(CCC1)[C@@H]1C[C@@H](O)[C@@H](O)[C@H]21", "note": "[CBK303248]", "% of control remaining": 86.231},
      {"smiles": "Cc1cccc(C)c1NC(=O)C(=O)NCCCN1CCOCC1", "note": "[CBK264850]", "% of control remaining": 100},
      {"smiles": "Cc1cc(C(=O)CSc2nnc(N3CCCC3)n2C2CC2)c(C)n1C", "note": "[CBK306051]", "% of control remaining": 156.629},
      {"smiles": "Cc1ncc(C(=O)NC2(c3ccccc3F)CCCC2)c(C)n1", "note": "[CBK283274]", "% of control remaining": 138.093},
      {"smiles": "Cc1cc(C)n(C)c(=O)c1C(=O)NCCCc1ccc(Cl)cc1", "note": "[CBK281566]", "% of control remaining": 124.711}
    ]}
  ]
}
